From article PMC3653798
These are yes or no findings as the source states them, for the method shown. In cells and extracts the contact can be indirect. Some binding calls cover weakened binding; strength is not graded here. Where a sequence is shown, tags or fusion partners need not be part of it.

Sequences of proteins named here, by UniProt entry; tags and fusion partners are left off. Residues count along the entry.
UniProt P18537, residues 19-581: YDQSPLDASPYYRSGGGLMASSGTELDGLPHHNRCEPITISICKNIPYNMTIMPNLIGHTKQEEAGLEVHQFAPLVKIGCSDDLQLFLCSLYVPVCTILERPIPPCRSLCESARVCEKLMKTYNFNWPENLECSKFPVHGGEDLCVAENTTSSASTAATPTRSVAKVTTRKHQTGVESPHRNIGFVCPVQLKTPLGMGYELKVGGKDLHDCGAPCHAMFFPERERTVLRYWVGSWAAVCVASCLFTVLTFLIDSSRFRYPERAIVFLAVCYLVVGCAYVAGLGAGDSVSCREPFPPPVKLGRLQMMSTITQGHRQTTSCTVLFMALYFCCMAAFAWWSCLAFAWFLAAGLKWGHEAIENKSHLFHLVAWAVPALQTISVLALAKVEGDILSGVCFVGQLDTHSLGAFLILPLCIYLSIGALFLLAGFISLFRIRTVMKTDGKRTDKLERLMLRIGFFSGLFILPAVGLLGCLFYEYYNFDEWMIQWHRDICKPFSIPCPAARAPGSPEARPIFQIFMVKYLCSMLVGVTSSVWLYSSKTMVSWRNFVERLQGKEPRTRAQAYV

B1: Drosophila APP Like (APPL), FLAG-tagged (protein, UniProt P14599 28-887)
chain: ASPRWEPQIAVLCEAGQIYQPQYLSEEGRWVTDLSKKTTGPTCLRDKMDLLDYCKKAYPNRDITNIVESSHYQKIGGWCRQGALNAAKCKGSHRWIKPFRCLGPFQSDALLVPEGCLFDHIHNASRCWPFVRWNQTGAAACQERGMQMRSFAMLLPCGISVFSGVEFVCCPKHFKTDEIHVKKTDLPVMPAAQINSANDELVMNDEDDSNDSNYSKDANEDDLDDEDDLMGDDEEDDMVADEAATAGGSPNTGSSGDSNSGSLDDINAEYDSGEEGDNYEEDGAGSESEAEVEASWDQSGGAKVVSLKSDSSSPSSAPVAPAPEKAPVKSESVTSTPQLSASAAAFVAANSGNSGTGAGAPPSTAQPTSDPYFTHFDPHYEHQSYKVSQKRLEESHREKVTRVMKDWSDLEEKYQDMRLADPKAAQSFKQRMTARFQTSVQALEEEGNAEKHQLAAMHQQRVLAHINQRKREAMTCYTQALTEQPPNAHHVEKCLQKLLRALHKDRAHALAHYRHLLNSGGPGGLEAAASERPRTLERLIDIDRAVNQSMTMLKRYPELSAKIAQLMNDYILALRSKDDIPGSSLGMSEEAEAGILDKYRVEIERKVAEKERLRLAEKQRKEQRAAEREKLREEKLRLEAKKVDDMLKSQVAEQQSQPTQSSTQSQAQQQQQEKSLPGKELGPDAALVTAANPNLETTKSEKDLSDTEYGEATVSSTKVQTVLPTVDDDAVQRAVEDVAAAVAHQEAEPQVQHFMTHDLGHRESSFSLRREFAQHAHAAKEGRNVYFTLSFAGIALMAAVFVGVAVAKWRTSRSPHAQGFIEVDQNVTTHHPIVREEKIVPNMQINGYENPTYKYFEVKE

Assays:
[1] = molecular target: T1, Drosophila APP Like (APPL), FLAG-tagged (Drosophila melanogaster) (UniProt P14599); experiment: co-IP; Drosophila tagged proteins co-expressed in HEK293T cells; lysis in 150 mM NaCl, 50 mM Tris/HCl pH 7.5, 10% glycerol, 0.4% Nonidet P-40; IP with anti-FLAG conjugated to Dynabeads M-270, 1 h at 4°C (reverse IP by the partner's tag); Western blot
T1 sequence: B1 chain

[2] = molecular target: Drosophila Frizzled (Fz), GFP-tagged (Drosophila melanogaster) (UniProt P18537); experiment: as above
[3] = molecular target: T2, human Van Gogh 2 (Vangl2), HA-tagged (human) (UniProt Q9ULK5); experiment: co-IP; Drosophila and human (or human and human) tagged proteins co-expressed in HEK293 cells; lysis in Tris pH 7.4, 150 mM NaCl, 1 mM EDTA, 0.5% NP40, 1 mM DTT; 1 µg immunoprecipitating antibody 1 h at 4°C, Protein G sepharose overnight; Western blot
T2 sequence: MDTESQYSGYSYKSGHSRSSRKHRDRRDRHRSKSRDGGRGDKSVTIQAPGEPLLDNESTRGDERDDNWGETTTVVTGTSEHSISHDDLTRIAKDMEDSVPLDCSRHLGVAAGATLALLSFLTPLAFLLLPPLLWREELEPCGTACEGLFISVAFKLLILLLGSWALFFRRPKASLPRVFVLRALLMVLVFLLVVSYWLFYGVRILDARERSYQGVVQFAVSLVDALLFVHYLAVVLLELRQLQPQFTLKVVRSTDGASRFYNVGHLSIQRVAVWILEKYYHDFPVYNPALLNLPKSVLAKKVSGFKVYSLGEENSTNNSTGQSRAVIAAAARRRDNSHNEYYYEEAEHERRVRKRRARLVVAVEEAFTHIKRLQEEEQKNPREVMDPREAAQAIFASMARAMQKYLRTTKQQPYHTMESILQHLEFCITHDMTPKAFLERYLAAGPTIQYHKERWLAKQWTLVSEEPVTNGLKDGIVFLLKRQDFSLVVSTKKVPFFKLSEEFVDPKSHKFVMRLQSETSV

[4] = molecular target: T2, human Van Gogh 2 (Vangl2), HA-tagged (human); experiment: condition: only proteins expressed separately in different cells and pooled during the Co-IP procedure; co-IP; control: Appl-FLAG and Vangl2-HA expressed separately in different cells in two dishes and pooled during the Co-IP procedure; IP with anti-FLAG and anti-HA; Western blot

| Molecule | binding [1] | binding [2] | binding [3] | binding [4] |
| --- | --- | --- | --- | --- |
| Drosophila Frizzled (Fz), GFP-tagged (from UniProt P18537 19-581) (receptor) | binds |  |  |  |
| B1 |  | binds | binds | no binding |
